According to US20230055235:
For part of these data: No signal at the amounts used counts as a negative. For part of these data: A weaker result is weaker than the reference pair of the same experiment.

Tests used:
[1] = target: T1, PD-L1 (programmed death-ligand 1) (Homo sapiens?) (UniProt Q9NZQ7); assay: inhibition of the protein; settings: Bz-dU at every n, purified recombinant protein, protein details: BPS PD-1/PD-L1 inhibition ELISA kit, single-stranded DNA
[2] = target: T1, PD-L1 (programmed death-ligand 1); assay: activity in cells; settings: protein on the cell surface, single-stranded DNA
[3] = Bz-dU at every n, PD-1/PD-L1 blockade in luciferase reporter co-culture, dose not given here

AGTTTTTGATTGTACCTTAGTG [PL022]
IC50 ([1]; variant of PL001): > 120 nM

ATGAAAAGTTTTTGATTGTACCTTAGTGCACTCAACAGTGCAGCC [PL018]
IC50 ([1]; variant of PL001): > 120 nM

ATGCCGCACGATCGCCCTATTTTGCGAGTTTAC [PL007]
functional effect of the aptamer ([2]; Bz-dU at every n, relatively weak inhibition in cells, variant of PL002, dose not given here): less active

CCGCACGATCGCCCTATTTTGCGAGTT [PL008]
IC50 ([1]; variant of PL002): > 120 nM

GAGTGACCGTCTGCCTGATGAAAAGTTTTTGATTGTACCTTAGTGCACTCAACAGTGCAGCCACACCACCAGCC [PL001]
functional effect of the aptamer ([2]; 5-(N-benzylcarboxamide)-2'-deoxyuridine (Bz-dU) at every n, PD-1/PD-L1 blockade in luciferase reporter co-culture, dose not given here): active

GAGTGACCGTCTGCCTGCCATTTCCTGCTTGCTCTTCCTCCTTTATTTTTCACCTTTCAGCCACACCACCAGCC [PL029]
functional effect of the aptamer ([2]; Bz-dU at every n, no PD-1/PD-L1 inhibition in reporter co-culture, dose not given here): not active

GAGTGACCGTCTGCCTGTGTATGCCGCACGATCGCCCTATTTTGCGAGTTTAACTGACAGCCACACCACCAGCC [PL028]
functional effect of the aptamer [2, 3]: active

GAGTGACCGTCTGCCTGTGTATGCCGCACGATCGCCCTATTTTGCGAGTTTACTCACAGCCACACCACCAGCC [PL002]
functional effect of the aptamer [2, 3]: active

GAGTGACCGTCTGCCTGTTAAGCGGCTAAGTTTTTGATTGTACCTTAGTGCCCTTACCAGCCACACCACCAGCC [PL010]
functional effect of the aptamer [2, 3]: active

GCCTGTGTATGCCGCACGATCGCCCTATTTTGCGAGTTTACTCACAGCC [PL005]
functional effect of the aptamer ([2]; Bz-dU at every n, at 50 nM similar to anti-PD-L1 antibody, variant of PL002): active

TGTATGCCGCACGATCGCCCTATTTTGCGAGTTTACTCA [PL006]
functional effect of the aptamer ([2]; Bz-dU at every n, inhibitory activity confirmed, variant of PL002, dose not given here): active

TTGATTGTACCTTAGTGCACTCAA [PL020]
IC50 ([1]; variant of PL001): > 120 nM
